From article PMC7819943, “Rice protein-binding microarrays: a tool to detect cis-acting elements near promoter regions in rice”
Some of the results follow.

Protein sequences, listed by entry. Tags and fused reporters are not part of them.
UniProt Q0JBA9, entry or part of it: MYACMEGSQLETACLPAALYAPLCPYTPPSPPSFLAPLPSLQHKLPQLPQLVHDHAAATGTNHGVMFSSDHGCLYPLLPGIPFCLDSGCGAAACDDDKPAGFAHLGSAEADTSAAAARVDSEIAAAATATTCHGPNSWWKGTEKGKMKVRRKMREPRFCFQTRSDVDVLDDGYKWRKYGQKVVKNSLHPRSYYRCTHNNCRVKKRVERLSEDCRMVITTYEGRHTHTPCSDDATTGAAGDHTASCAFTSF

Target: OsWRKY34 (Oryza sativa, UniProt Q0JBA9 1-250)
Assay: protein-binding microarray (RPBM); PBS, 2% BSA, 51.3 ng/ul salmon testes DNA, 50 uM zinc acetate, 200 nM TF, 25 C, 1 h; high values mean tight binding
Conditions: protein: recombinant; tags: N-terminal polyhistidine and DsRed monomer fusion (pET32a); label: CyDye5-dUTP incorporated in the synthesized complementary strand; 3' TTTTT single-stranded linker to array surface; dsDNA, one strand shown
Summary of the method: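 Per-feature fluorescence intensity (arbitrary units), read on an Axon 4000B scanner, is the binding signal. Transcription factors carrying an N-terminal polyhistidine tag and DsRed fusion were expressed in E. coli BL21-CodonPlus and purified on Ni–NTA. A custom Agilent array, made double-stranded by primer extension with Cy5-dUTP and blocked with 2% BSA, was incubated with 200 nM protein in PBS, 2% BSA, salmon testes DNA and 50 µM zinc acetate at 25 °C for 1 h and then washed.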

Sequence	binding signal
AATAGTGATGTTTTTCACGTGTAATTATACAGATTTCTCACGGAGTCACCTAGTGCAG	8180 fluorescence intensity (a.u.)
CACCCCTAGCCGTCAGTGTATTTCACTCATCAATTAAATTCGGAGTCACCTAGTGCAG	9010 fluorescence intensity (a.u.)
TGATCTATTTTTGCGTGGTTGGGCCAAGGGGAGGAGGAGTCGGAGTCACCTAGTGCAG	10300 fluorescence intensity (a.u.)
TATCTGCATGGATCATATTTGTGTACGTCGTTGTTCTCCTCGGAGTCACCTAGTGCAG	8500 fluorescence intensity (a.u.)
GACCTAGCTAAAGTGTTCTTTTGTTGATGTATTTCCAATCCGGAGTCACCTAGTGCAG	8320 fluorescence intensity (a.u.)
AACGAGTGAAGCTCACTGCGGCTAGCTGCTGTCTTGTGTTCGGAGTCACCTAGTGCAG	8300 fluorescence intensity (a.u.)
TGCCGCCGCCGCCGCCACCACTGCTCCGCCTCCGATTGCTCGGAGTCACCTAGTGCAG	8570 fluorescence intensity (a.u.)
TGGTGTTGTTGGTGTCGTCTTGTTCTTGTTTGTGTTTTCTCGGAGTCACCTAGTGCAG	15900 fluorescence intensity (a.u.)
TGCAATCGGCCTCCTGTCCTGCTCCTGCTCTTGCTCTTGCCGGAGTCACCTAGTGCAG	8740 fluorescence intensity (a.u.)
TGTTCGGAATTGCAGGGAGGGAGAGGGCGGTTCGTTTATTCGGAGTCACCTAGTGCAG	8910 fluorescence intensity (a.u.)
ATATCTAACGGAAACCTGACGGGAGGGGCATGGGAGGAATCGGAGTCACCTAGTGCAG	9330 fluorescence intensity (a.u.)
TCATTATTACTGTACTGGCCATCAGCTTTTGCTGCTAACGCGGAGTCACCTAGTGCAG	9280 fluorescence intensity (a.u.)
ATTATATGTCATTTGACTTTTCTCTTAGCTAAAGTTCTTTCGGAGTCACCTAGTGCAG	9800 fluorescence intensity (a.u.)
GTGTGGGGCTACCTTTCTTCTCTTCGTTCCCTATCCCCTCCGGAGTCACCTAGTGCAG	9930 fluorescence intensity (a.u.)
GTGCTGTTCTTTAATTTACCCTGATACTTTTGGATATCTGCGGAGTCACCTAGTGCAG	10000 fluorescence intensity (a.u.)
ACACTCCCTAGCCACTCTCACGCCAGCGCCGCGACAACCACGGAGTCACCTAGTGCAG	10400 fluorescence intensity (a.u.)
CTCTTTTATACTCGATCGATCGCCACTCTACCTCCATCACCGGAGTCACCTAGTGCAG	9020 fluorescence intensity (a.u.)
TATGGCTGGATTCCTGTGTGGTGCTGGGTCCCTCAGTGAGCGGAGTCACCTAGTGCAG	9280 fluorescence intensity (a.u.)
GCCGCAGCTTCACAAGCCTCTGCCGTGCTCGCCGCTGCTGCGGAGTCACCTAGTGCAG	8190 fluorescence intensity (a.u.)
TCCGTGTCCAACGTTTGACTGTCCGTCTTATATGAAATTTCGGAGTCACCTAGTGCAG	8030 fluorescence intensity (a.u.)
TGGAGCCTTTTGCATACACCTAACGCCTCACCGAAGGACTCGGAGTCACCTAGTGCAG	8150 fluorescence intensity (a.u.)

Rewritten bar-delimited: part of the list above.
Sequence | binding signal
GACCTAGCTAAAGTGTTCTTTTGTTGATGTATTTCCAATCCGGAGTCACCTAGTGCAG | 8320 fluorescence intensity (a.u.)
AACGAGTGAAGCTCACTGCGGCTAGCTGCTGTCTTGTGTTCGGAGTCACCTAGTGCAG | 8300 fluorescence intensity (a.u.)

Additional entries follow:

Sequence	binding signal
CGGGGCCCAACGAGGTGGCGCCGTGGCTGGTGGGGCGGGTCGGAGTCACCTAGTGCAG	9270 fluorescence intensity (a.u.)
TCCGGTTGGATAAATAGGGCGGGTAAAAAATATCTTTCTCCGGAGTCACCTAGTGCAG	13300 fluorescence intensity (a.u.)
CTCCACATTAAACTAGTGCTACTACTCGTCTACTTGCCTACGGAGTCACCTAGTGCAG	8190 fluorescence intensity (a.u.)
TCGTGCCGCATACTCTCGCCTGCTACTCCTCGCGCCCAAGCGGAGTCACCTAGTGCAG	8220 fluorescence intensity (a.u.)
CTCCAAATCTCATGTGCTTGTGTGTTTTTACTTTTTAGAGCGGAGTCACCTAGTGCAG	8330 fluorescence intensity (a.u.)
TCTCCCGCTTCCTTCTCCGCTTCCGCCCGCATCTCTCTCCCGGAGTCACCTAGTGCAG	12600 fluorescence intensity (a.u.)
TATTCCCTTACTAGATCTTCTATATATCTTAATTAACGTTCGGAGTCACCTAGTGCAG	8070 fluorescence intensity (a.u.)
GACTGAAATGCTACTCAAATCTCCGTTTCCTCGTCAACTCCGGAGTCACCTAGTGCAG	10100 fluorescence intensity (a.u.)
AACTTTTTTTTTGTTGGTTGTTGGGATGAACCTTTTCTTTCGGAGTCACCTAGTGCAG	9500 fluorescence intensity (a.u.)
GTCTCCGCTGTCTCGCACAGACTTCTTTCTCTCTACTCTTCGGAGTCACCTAGTGCAG	12500 fluorescence intensity (a.u.)
CTATCTCTCTCATCTGATTCCTACGTTTTTCCTGCGCTCCCGGAGTCACCTAGTGCAG	8330 fluorescence intensity (a.u.)
GTTTTGGATGTGACGTGATGTGATGAAAAGTTGGAAGTTTCGGAGTCACCTAGTGCAG	8400 fluorescence intensity (a.u.)
ACAGCTTCCATATGTCCGCTTCAGCTTTCTCTCCATACTACGGAGTCACCTAGTGCAG	10600 fluorescence intensity (a.u.)
TTTTAAGTATAATTTCTCTATAATTTGACAATGTGGTGCTCGGAGTCACCTAGTGCAG	8550 fluorescence intensity (a.u.)
CTCTCTCCTCTCCGCCTCGCTTCGCCGTCTCTTTTCCTTTCGGAGTCACCTAGTGCAG	11000 fluorescence intensity (a.u.)
CCAAACCCTAGCCGCCTCTCGTTTCTTCTCGTCCTCTCCACGGAGTCACCTAGTGCAG	12000 fluorescence intensity (a.u.)
CCTTTAGCCACTGCCACAAGCACTACCGGCACCACCATAGCGGAGTCACCTAGTGCAG	8260 fluorescence intensity (a.u.)
CATCCAATCTGCATGCCGGTTTTTGCATCTTTTGTATGGACGGAGTCACCTAGTGCAG	8590 fluorescence intensity (a.u.)
GCCACACACTTCTTCCACACTTCACGCACCTAGGGTTTCGCGGAGTCACCTAGTGCAG	8280 fluorescence intensity (a.u.)
CCTCCTGGCCTCAAACTAACCTGCATCTTCGTCGACGCGCCGGAGTCACCTAGTGCAG	9370 fluorescence intensity (a.u.)
TTTTGAGTGCTTTTATTTCTTTATTTCTTTATTTCTTTATCGGAGTCACCTAGTGCAG	9320 fluorescence intensity (a.u.)
